Some of the results follow. Plates or batches differ in their baseline, so values are only roughly comparable.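 Hits were defined as a z-score below −3.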
molecular target: T1, YTHDF1 YTH domain (aa 365-554) (UniProt Q9BYJ9); assay: tryptophan fluorescence intensity z-score (mean); higher = higher fluorescence, less quenching (negative = binding / quenching); details: 10 µM
T1 sequence (whole entry): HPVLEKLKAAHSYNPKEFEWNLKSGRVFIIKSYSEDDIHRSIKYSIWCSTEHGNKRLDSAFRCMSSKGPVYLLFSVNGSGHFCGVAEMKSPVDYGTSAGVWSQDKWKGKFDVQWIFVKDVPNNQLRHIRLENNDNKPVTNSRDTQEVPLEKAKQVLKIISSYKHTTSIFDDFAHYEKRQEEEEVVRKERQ

Tryptophan fluorescence intensity z-score, inactive:
CC1=C2C(O)C(=O)OC3CC4C(C)(C)C(=O)C=C[C@]4(C)C(CC1)[C@]23C (some centres undefined) (plate: M 13-14) 0.617
Oc1ccc(O)cc1 (plate: M 9-10) 0.704
CCCCC(=O)O[C@]1(C(=O)CO)[C@@H](C)C[C@H]2[C@@H]3CCC4=CC(=O)C=C[C@]4(C)[C@@]3(F)[C@@H](O)C[C@@]21C (plate: M 1-2) 0.381
COc1cc(C(=O)N2CCOCC2)cc(OC)c1OC (plate: M 9-10) 0.286
CC(=O)OCC(=O)[C@@]1(O)CC[C@H]2[C@@H]3CCC4=CC(=O)CC[C@]4(C)[C@H]3C(=O)C[C@@]21C (plate: M 1-2) 0.239
CCCCCCCCCCCCCc1ccco1 (plate: M 21-22) 0.276
OC[C@@H](O)[C@@H](O)[C@H](O)[C@@H](O)CO (plate: M 1-2) 0.665
COc1cc(O)c(C(C)=O)c(OC)c1 (plate: M 15-16) -0.013
CC(c1cc2ccccc2s1)N(O)C(N)=O (centres undefined) (plate: M 11-12) 0.64
C[C@@H]1C(=O)O[C@H]2C[C@@]34[C@H]5C[C@@H](C(C)(C)C)[C@]36[C@@H](OC(=O)[C@@H]6O)O[C@@]4(C(=O)O5)[C@]21O (plate: M 17-18) 0.756
O=C(O)c1cc(O)c2c(c1)[C@H]([C@H]1c3cc(C(=O)O)cc(O)c3C(=O)c3c(O[C@@H]4O[C@H](CO)[C@@H](O)[C@H](O)[C@H]4O)cccc31)c1cccc(O[C@@H]3O[C@H](CO)[C@@H](O)[C@H](O)[C@H]3O)c1C2=O (plate: M 9-10) -0.923
CCC(=O)O[C@H]1[C@H](O[C@@H]2[C@@H](C)[C@H](O[C@H]3C[C@@](C)(OC)[C@@H](O)[C@H](C)O3)[C@@H](C)C(=O)O[C@H](CC)[C@@](C)(O)[C@H](O)[C@@H](C)C(=O)[C@H](C)C[C@@]2(C)O)O[C@H](C)C[C@@H]1N(C)C (plate: M 7-8) -0.599
Nc1ncnc2c1ncn2[C@@H]1O[C@H](COP(=O)(O)O)[C@@H](O)[C@H]1O (plate: M 5-6) 0.138
CC1=CC(=O)CC(C)(C)C1(O)/C=C/C(C)=C\C(=O)O (mixture of isomers) [ABSCISICACID(cis,trans;+/-)] (plate: M 19-20) 0.548
NC(=O)c1ncn([C@@H]2O[C@H](CO)[C@@H](O)[C@H]2O)c1N (plate: M 23-24) 0.074
O=c1[nH]c(=O)n([C@H]2C[C@H](O)[C@@H](CO)O2)cc1F (plate: M 7-8) 0.574
Nc1ccc(C(=O)Oc2ccccc2)c(O)c1 (plate: M 1-2) 0.595
CC(=O)O[C@H]1CC[C@]2(C)[C@H]3CC=C4[C@@H]5CC(C)(C)CC[C@]5(C)CC[C@@]4(C)[C@]3(C)CC[C@H]2C1(C)C [beta-AMYRINACETATE] (plate: M 13-14) -0.153
COc1cc(/C=C/C(=O)O)ccc1O (plate: M 17-18) -0.402
NS(=O)(=O)c1cc2c(cc1Cl)NCNS2(=O)=O (plate: M 3-4) -0.208
CN(C)CCc1c[nH]c2ccc(C[C@H]3COC(=O)N3)cc12 (plate: M 9-10) 0.392
CN(C)CCC=C1c2ccccc2C=Cc2ccccc21 (plate: M 7-8) 0.109
C[n+]1cccc(C(=O)[O-])c1 (plate: M 17-18) 0.095
O=S(=O)(O)c1cc(N=C=S)ccc1/C=C/c1ccc(N=C=S)cc1S(=O)(=O)O (plate: M 23-24) -1.3
O=C1c2c(O)cccc2Cc2cccc(O)c21 (plate: M 1-2) 0.161
CCN(CC)CCOC(=O)C1(C2CCCCC2)CCCCC1 (plate: M 1-2) 0.425
O=c1cc(-c2ccccc2)oc2c(O)c(O)ccc12 (plate: M 15-16) -1.08
CN(C)CCCN1c2ccccc2Sc2ccc(C(F)(F)F)cc21 (plate: M 7-8) -0.132
COc1ccc([C@@H]2CC(=O)c3c(O)cc(O)cc3O2)cc1O (plate: M 17-18) 0.548
CCCCCc1c2c(cc(O)c1C(=O)O)OC(=O)c1c(cc(OC)cc1C(=O)CCCC)O2 (plate: M 17-18) -0.123
COC1=C[C@@H](C)[C@@H]2C[C@H]3OC(=O)C[C@H]4C(C)=C(OC)C(=O)[C@H]([C@@]2(C)C1=O)[C@@]34C (plate: M 17-18) 0.356
C[N+]1(C)CCC(OC(=O)C(O)(c2ccccc2)C2CCCC2)C1 (centres undefined) (plate: M 13-14) 0.29
CCCCCCCCCCCCCCCCCCOCC(O)CO (centres undefined) (plate: M 19-20) 0.633
COC(=O)c1cc(O)c(=O)c2c(O)c(O)ccc2c1 (plate: M 23-24) -0.723
N=C(NCCCCCCNC(=N)NC(=N)Nc1ccc(Cl)cc1)NC(=N)Nc1ccc(Cl)cc1 (plate: M 1-2) 0.613
COc1c2occc2cc2ccc(=O)oc12 (plate: M 3-4) -0.253
CC(=O)Oc1ccc2c(c1OC(C)=O)OCC1(O)Cc3c(cc(OC(C)=O)c(OC(C)=O)c3OC(C)=O)C21 (centres undefined) (plate: M 15-16) 0.34
CC(=O)OCC(=O)[C@@]1(O)[C@@H](C)C[C@H]2[C@@H]3CCC4=CC(=O)C=C[C@]4(C)[C@@]3(F)[C@@H](O)C[C@@]21C (plate: M 11-12) -0.514
O=C(O)c1cn(-c2ccc(F)cc2)c2cc(N3CCNCC3)c(F)cc2c1=O (plate: M 9-10) -0.261
CC[C@H](/C=C/[C@@H](C)[C@H]1CC[C@H]2[C@@H]3CC=C4C[C@@H](O)CC[C@]4(C)[C@H]3CC[C@]12C)C(C)C (plate: M 21-22) 0.119
CN1CCN(CC/C=C2/c3ccccc3Sc3ccc(S(=O)(=O)N(C)C)cc32)CC1 (plate: M 5-6) -0.501
C[C@H]1O[C@H](O[C@H]2[C@H](O)[C@@H](O)[C@@H](O[C@H]3[C@H](O)[C@@H](O)C(O)O[C@@H]3CO)O[C@@H]2CO)[C@H](O)[C@@H](O)[C@@H]1N[C@H]1C=C(CO)[C@@H](O)[C@H](O)[C@H]1O (some centres undefined) (plate: M 9-10) -0.0167
CC(C)(CO)[C@@H](O)C(=O)NCCC(=O)NCCSSCCNC(=O)CCNC(=O)[C@H](O)C(C)(C)CO (plate: M 21-22) 0.86
COc1ccc(-c2cc(=O)c3ccccc3o2)cc1 (plate: M 15-16) 0.143
N=C(N)NC(=N)NCCc1ccccc1 (plate: M 11-12) 0.372
COc1ccc2c(=O)c(OC)c(-c3ccccc3)oc2c1 (plate: M 17-18) -0.905
CN1CCC(=C2c3ccccc3C=Cc3ccccc32)CC1 (plate: M 11-12) -0.144
CC(Cc1cccc(C(F)(F)F)c1)NCCOC(=O)c1ccccc1 (centres undefined) (plate: M 23-24) 0.252
CC(=O)S[C@@H]1CC2=CC(=O)CC[C@]2(C)[C@H]2CC[C@@]3(C)[C@@H](CC[C@@]34CCC(=O)O4)[C@H]12 (plate: M 5-6) -0.31
CCCc1cc(C(N)=S)ccn1 (plate: M 23-24) -0.219
NNCCc1ccccc1 (plate: M 3-4) -0.184
C=C1CC[C@H](O)C/C1=C/C=C1\CCC[C@]2(C)[C@@H]([C@H](C)CCCC(C)C)CC[C@@H]12 (plate: M 5-6) -0.157
CC(=O)OCC(=O)[C@@]1(O)CC[C@H]2[C@@H]3CCC4=CC(=O)CC[C@]4(C)[C@@]3(F)[C@@H](O)C[C@@]21C (plate: M 3-4) -0.107
O=C(O)CCCCCCCC(=O)O (plate: M 5-6) -0.128
CC(=O)O[C@@H]1C[C@H]2C(C)(C)C(=O)CC[C@]2(C)[C@H]2CC[C@@]3(C)[C@H](c4ccoc4)OC(=O)[C@H]4O[C@]43[C@@]21C (plate: M 13-14) 1.05
CC12CCC3C(CC3(C)C)C(C)(CCC1=O)O2 (centres undefined) (plate: M 21-22) 0.377
CC(=O)O[C@@H]1C[C@H]2C(C)(C)[C@@H](O)CC[C@]2(C)[C@H]2CC[C@@]3(C)[C@H](c4ccoc4)OC(=O)[C@H]4O[C@]43[C@@]21C [beta-DIHYDROGEDUNOL] (plate: M 13-14) -0.144
CCCCN(CCCC)CCCOC(=O)c1ccc(N)cc1 (plate: M 9-10) -0.182
Cc1ccc(C(=O)c2ccc(CC(=O)O)n2C)cc1 (plate: M 5-6) -0.187
FC(F)(F)C(Cl)Br (centres undefined) (plate: M 13-14) 1.17
O=C(O)CN1C(=O)c2cccc3cccc(c23)C1=O (plate: M 7-8) -0.649
CC(=O)OCC(=O)[C@@]1(O)CC[C@H]2[C@@H]3CCC4=CC(=O)CC[C@]4(C)[C@H]3[C@@H](O)C[C@@]21C (plate: M 3-4) 0.0264
Cc1ncc(C[n+]2csc(CCO)c2C)c(N)n1 (plate: M 11-12) -0.2
CC(C)c1c(C(=O)Nc2ccccc2)c(-c2ccccc2)c(-c2ccc(F)cc2)n1CC[C@@H](O)C[C@@H](O)CC(=O)O (plate: M 9-10) -0.269

In the list so far, 9 contain a COOH group:
Tryptophan fluorescence intensity z-score, inactive:
O=C(O)c1cc(O)c2c(c1)[C@H]([C@H]1c3cc(C(=O)O)cc(O)c3C(=O)c3c(O[C@@H]4O[C@H](CO)[C@@H](O)[C@H](O)[C@H]4O)cccc31)c1cccc(O[C@@H]3O[C@H](CO)[C@@H](O)[C@H](O)[C@H]3O)c1C2=O (plate: M 9-10) -0.923
CC1=CC(=O)CC(C)(C)C1(O)/C=C/C(C)=C\C(=O)O (mixture of isomers) [ABSCISICACID(cis,trans;+/-)] (plate: M 19-20) 0.548
COc1cc(/C=C/C(=O)O)ccc1O (plate: M 17-18) -0.402
CCCCCc1c2c(cc(O)c1C(=O)O)OC(=O)c1c(cc(OC)cc1C(=O)CCCC)O2 (plate: M 17-18) -0.123
O=C(O)c1cn(-c2ccc(F)cc2)c2cc(N3CCNCC3)c(F)cc2c1=O (plate: M 9-10) -0.261
O=C(O)CCCCCCCC(=O)O (plate: M 5-6) -0.128
Cc1ccc(C(=O)c2ccc(CC(=O)O)n2C)cc1 (plate: M 5-6) -0.187
O=C(O)CN1C(=O)c2cccc3cccc(c23)C1=O (plate: M 7-8) -0.649
CC(C)c1c(C(=O)Nc2ccccc2)c(-c2ccccc2)c(-c2ccc(F)cc2)n1CC[C@@H](O)C[C@@H](O)CC(=O)O (plate: M 9-10) -0.269

For convenience, some entries already given.
Tryptophan fluorescence intensity z-score, inactive:
O=C(O)c1cc(O)c2c(c1)[C@H]([C@H]1c3cc(C(=O)O)cc(O)c3C(=O)c3c(O[C@@H]4O[C@H](CO)[C@@H](O)[C@H](O)[C@H]4O)cccc31)c1cccc(O[C@@H]3O[C@H](CO)[C@@H](O)[C@H](O)[C@H]3O)c1C2=O (plate: M 9-10) -0.923
CCC(=O)O[C@H]1[C@H](O[C@@H]2[C@@H](C)[C@H](O[C@H]3C[C@@](C)(OC)[C@@H](O)[C@H](C)O3)[C@@H](C)C(=O)O[C@H](CC)[C@@](C)(O)[C@H](O)[C@@H](C)C(=O)[C@H](C)C[C@@]2(C)O)O[C@H](C)C[C@@H]1N(C)C (plate: M 7-8) -0.599
